# Laboratory results reported in the supplement of paper PMC12067093, “Discovery and optimisation of a covalent ligand for TRIM25 and its application to targeted protein ubiquitination” (Chemical Science, 2025).
# Chains of the proteins cited; added tags and fusions are not shown. Lines headed by an entry give the natural chain unless they say otherwise; changes in a name come on top.
# UniProt Q99698: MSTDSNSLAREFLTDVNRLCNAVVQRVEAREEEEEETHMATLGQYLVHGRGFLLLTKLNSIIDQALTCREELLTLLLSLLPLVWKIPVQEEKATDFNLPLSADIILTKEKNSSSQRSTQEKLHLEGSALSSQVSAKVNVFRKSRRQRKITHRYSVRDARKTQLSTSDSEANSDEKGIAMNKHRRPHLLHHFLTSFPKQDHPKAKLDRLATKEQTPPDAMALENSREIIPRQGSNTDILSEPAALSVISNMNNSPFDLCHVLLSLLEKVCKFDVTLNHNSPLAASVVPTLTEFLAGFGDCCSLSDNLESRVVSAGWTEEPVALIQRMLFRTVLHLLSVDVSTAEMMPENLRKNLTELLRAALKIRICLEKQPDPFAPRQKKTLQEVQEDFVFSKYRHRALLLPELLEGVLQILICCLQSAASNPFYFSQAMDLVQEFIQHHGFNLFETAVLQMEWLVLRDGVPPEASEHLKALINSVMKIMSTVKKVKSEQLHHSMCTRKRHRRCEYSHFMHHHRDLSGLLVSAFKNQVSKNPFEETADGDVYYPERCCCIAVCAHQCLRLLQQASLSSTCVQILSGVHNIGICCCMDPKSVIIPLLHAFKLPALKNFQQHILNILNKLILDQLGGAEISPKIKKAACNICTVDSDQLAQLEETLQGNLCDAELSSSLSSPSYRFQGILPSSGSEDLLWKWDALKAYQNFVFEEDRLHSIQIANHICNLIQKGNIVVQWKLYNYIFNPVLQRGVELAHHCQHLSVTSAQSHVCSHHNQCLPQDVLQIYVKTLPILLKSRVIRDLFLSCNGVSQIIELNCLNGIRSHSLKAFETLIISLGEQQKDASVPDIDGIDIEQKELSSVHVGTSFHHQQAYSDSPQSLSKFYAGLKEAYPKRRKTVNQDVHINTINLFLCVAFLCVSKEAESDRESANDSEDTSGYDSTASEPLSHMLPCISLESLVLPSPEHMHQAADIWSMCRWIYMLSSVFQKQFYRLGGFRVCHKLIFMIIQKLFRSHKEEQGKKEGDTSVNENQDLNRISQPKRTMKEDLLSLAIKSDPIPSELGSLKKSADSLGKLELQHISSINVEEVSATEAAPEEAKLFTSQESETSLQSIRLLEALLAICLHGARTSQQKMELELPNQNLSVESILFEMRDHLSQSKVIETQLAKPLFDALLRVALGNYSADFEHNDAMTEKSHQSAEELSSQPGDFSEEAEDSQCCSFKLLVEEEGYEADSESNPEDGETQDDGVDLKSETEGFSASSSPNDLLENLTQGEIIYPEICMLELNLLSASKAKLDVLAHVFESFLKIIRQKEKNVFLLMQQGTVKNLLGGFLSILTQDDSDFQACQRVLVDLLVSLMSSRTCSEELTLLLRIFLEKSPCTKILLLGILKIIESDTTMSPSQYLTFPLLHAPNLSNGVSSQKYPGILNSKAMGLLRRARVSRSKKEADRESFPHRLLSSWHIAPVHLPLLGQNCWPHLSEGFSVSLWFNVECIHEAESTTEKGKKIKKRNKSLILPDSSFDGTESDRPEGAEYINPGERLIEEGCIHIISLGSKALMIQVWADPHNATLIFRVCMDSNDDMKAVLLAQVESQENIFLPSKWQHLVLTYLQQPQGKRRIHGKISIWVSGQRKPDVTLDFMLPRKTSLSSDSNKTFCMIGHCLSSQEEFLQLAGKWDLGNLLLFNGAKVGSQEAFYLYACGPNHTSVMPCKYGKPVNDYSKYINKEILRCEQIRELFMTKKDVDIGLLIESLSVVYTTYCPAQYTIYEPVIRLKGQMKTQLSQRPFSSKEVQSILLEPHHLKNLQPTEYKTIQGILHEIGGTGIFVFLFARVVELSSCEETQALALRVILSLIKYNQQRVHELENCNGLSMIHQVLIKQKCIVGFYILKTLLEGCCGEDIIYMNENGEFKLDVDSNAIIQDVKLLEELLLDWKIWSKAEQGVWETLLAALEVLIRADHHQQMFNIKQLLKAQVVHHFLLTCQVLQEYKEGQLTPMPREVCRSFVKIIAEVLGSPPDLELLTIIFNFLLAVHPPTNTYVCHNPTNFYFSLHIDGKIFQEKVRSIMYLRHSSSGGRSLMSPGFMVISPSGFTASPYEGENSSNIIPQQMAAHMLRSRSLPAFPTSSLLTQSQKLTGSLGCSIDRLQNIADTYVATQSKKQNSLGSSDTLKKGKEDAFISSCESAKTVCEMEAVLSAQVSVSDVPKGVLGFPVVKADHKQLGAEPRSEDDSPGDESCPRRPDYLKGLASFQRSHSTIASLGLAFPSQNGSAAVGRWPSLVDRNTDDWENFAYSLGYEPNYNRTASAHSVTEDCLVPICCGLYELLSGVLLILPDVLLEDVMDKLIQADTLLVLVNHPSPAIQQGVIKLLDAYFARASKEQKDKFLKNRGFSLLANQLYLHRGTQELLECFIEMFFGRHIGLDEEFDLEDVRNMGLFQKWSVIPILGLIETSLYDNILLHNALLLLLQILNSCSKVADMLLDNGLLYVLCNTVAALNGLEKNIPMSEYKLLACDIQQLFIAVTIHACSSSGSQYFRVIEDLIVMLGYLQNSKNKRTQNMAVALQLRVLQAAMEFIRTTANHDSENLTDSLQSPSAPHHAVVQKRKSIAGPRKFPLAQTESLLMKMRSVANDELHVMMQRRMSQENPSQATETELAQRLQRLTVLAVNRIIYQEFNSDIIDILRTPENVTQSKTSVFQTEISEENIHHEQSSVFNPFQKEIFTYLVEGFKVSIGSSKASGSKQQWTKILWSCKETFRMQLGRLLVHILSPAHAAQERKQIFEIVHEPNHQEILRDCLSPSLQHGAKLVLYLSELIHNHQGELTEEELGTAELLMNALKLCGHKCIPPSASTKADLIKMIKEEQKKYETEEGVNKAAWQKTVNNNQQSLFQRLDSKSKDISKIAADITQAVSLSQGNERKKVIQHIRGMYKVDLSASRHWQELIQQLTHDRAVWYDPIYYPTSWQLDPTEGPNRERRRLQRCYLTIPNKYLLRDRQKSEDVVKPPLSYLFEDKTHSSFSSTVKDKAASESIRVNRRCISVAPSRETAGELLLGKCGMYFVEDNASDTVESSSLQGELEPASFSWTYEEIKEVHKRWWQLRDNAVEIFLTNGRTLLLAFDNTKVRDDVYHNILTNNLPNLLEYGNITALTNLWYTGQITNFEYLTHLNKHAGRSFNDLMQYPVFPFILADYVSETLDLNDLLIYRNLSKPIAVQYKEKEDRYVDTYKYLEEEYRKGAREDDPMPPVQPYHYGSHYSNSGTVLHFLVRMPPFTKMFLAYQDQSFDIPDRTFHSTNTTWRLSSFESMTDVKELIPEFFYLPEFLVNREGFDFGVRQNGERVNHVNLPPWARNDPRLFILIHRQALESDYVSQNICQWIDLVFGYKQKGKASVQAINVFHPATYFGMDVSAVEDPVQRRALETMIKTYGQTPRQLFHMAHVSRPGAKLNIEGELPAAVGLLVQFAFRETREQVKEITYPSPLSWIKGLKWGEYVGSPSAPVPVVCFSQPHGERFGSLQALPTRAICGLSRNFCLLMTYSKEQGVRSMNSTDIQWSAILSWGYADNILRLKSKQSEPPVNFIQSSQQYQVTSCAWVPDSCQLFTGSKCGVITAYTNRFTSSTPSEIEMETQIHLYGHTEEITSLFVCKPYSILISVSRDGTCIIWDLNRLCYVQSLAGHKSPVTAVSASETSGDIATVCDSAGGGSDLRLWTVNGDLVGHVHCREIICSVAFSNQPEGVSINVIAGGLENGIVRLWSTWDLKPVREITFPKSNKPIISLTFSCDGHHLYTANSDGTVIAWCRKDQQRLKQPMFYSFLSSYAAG
# UniProt O60449: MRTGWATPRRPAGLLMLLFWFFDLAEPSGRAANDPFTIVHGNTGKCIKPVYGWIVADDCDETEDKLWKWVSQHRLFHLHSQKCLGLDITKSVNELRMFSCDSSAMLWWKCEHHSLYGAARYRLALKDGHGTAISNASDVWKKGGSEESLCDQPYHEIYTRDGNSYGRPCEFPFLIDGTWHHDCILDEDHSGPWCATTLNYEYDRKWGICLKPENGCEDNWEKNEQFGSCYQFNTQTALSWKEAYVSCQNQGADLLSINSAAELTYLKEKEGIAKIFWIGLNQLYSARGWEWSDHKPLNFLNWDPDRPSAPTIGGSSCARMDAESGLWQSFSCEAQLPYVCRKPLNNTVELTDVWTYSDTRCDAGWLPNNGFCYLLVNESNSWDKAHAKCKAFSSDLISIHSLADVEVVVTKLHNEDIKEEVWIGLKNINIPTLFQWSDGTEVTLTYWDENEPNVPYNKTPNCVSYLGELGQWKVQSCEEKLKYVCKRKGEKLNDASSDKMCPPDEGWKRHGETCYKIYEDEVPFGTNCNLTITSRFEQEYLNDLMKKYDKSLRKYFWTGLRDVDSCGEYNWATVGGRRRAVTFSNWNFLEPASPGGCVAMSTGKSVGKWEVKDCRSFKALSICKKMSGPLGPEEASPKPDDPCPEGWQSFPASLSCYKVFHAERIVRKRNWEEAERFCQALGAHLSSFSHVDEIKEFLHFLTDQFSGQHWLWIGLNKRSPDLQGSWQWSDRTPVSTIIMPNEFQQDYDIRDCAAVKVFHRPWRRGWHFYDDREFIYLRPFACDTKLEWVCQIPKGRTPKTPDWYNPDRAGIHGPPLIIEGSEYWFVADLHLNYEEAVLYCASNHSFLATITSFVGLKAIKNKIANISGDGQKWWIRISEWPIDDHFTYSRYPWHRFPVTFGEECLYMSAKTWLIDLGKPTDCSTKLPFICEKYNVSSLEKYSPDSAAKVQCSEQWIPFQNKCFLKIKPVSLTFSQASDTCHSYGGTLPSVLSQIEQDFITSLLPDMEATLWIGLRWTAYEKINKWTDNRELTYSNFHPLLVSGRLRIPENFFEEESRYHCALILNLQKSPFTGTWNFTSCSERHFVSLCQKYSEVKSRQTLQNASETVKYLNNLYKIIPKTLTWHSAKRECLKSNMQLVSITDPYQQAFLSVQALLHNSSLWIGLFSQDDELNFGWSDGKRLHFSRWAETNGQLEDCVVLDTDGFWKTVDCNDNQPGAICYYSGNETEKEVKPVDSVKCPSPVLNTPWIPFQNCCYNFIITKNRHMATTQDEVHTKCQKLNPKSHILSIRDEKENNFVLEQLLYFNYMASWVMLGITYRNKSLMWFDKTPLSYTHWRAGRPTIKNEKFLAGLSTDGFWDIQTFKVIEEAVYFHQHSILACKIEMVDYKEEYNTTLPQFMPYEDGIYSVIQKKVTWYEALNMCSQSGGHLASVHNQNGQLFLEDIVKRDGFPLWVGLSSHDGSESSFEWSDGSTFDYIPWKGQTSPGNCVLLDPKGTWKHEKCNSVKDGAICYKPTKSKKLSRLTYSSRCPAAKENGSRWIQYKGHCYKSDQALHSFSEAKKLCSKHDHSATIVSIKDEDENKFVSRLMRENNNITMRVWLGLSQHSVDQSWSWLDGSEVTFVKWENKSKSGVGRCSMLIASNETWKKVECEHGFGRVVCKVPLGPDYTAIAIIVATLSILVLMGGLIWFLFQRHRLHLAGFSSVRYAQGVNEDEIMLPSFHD
# UniProt P31153, whole entry, looked up: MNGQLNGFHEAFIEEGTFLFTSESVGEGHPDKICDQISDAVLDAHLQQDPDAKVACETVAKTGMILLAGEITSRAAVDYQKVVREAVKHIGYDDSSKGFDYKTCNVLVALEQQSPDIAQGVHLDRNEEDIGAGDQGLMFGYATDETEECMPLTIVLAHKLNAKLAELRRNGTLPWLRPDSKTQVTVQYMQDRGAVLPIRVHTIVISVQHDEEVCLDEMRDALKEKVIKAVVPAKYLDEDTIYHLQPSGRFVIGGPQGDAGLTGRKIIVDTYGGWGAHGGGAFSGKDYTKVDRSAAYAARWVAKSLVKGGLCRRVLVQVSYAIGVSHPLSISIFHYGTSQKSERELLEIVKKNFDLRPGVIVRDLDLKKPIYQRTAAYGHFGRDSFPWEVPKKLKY
# UniProt O75608: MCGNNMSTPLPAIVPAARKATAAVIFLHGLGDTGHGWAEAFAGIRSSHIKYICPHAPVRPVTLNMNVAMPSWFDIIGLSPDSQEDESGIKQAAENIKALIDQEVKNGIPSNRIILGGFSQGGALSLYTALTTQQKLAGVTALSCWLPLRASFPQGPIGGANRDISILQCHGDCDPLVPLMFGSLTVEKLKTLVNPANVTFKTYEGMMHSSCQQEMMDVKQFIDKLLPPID
# This is one part of the list.
# Compound: CC1Cc2ccccc2N1C(=O)C1CCCN(C1)C(=O)CCl (mixture of isomers) [TRIM25 ligand 11 (diastereomer mixture)]
# Assay: probe-labelled cysteine peptide fold change vs DMSO (competition) (log2 fold change); higher = less target engagement (more negative = stronger competition)
# Conditions: THP-1, incubation time: 4 h
# 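Note: competitive chemoproteomic profiling in live THP-1 cells with an iodoacetamide desthiobiotin (IA-DTB) probe, comparing probe-labelled peptide intensities in compound-treated cells against DMSO-treated controls.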
Target,probe-labelled cysteine peptide fold change (10 µM),probe-labelled cysteine peptide fold change (50 µM)
MACF1_Q9UPN3_2895_SLGQVSLTHPYSECDFK (UniProt Q9UPN3),0.0255,-0.275
MAT2B_Q9NZL9_58_EFQQNNWHAVGCGFR (UniProt Q9NZL9),0.0159,-0.0574
MAP3K20_Q9NYL2_571_SDSSADCQWLDTLR (UniProt Q9NYL2),-0.17,-0.244
MARC1_Q5VT66_79_GVPVSEAECTAMGLR (UniProt Q5VT66),-0.00294,-0.0671
LTN1_O94822_999_TLPSHLCTSALLSK (UniProt O94822),0.17,0.116
MAPK7_Q13164_194_DLKPSNLLVNENCELK (UniProt Q13164),-0.246,-0.257
LYST_Q99698_3649_LCYVQSLAGHK (UniProt Q99698),0.0365,-0.124
MATR3_P43243_296_GYPHLCSICDLPVHSNK (UniProt P43243),-0.0503,0.00253
MAN1A2_O60476_462_MGHLACFAGGMFALGADGSR (UniProt O60476),-0.0933,-0.0276
LY75_O60449_1060_IPENFFEEESRYHCALILNLQK (UniProt O60449),-0.284,-0.227
MAT2A_P31153_214_VHTIVISVQHDEEVCLDEMRDALK (UniProt P31153),-0.156,-0.119
MAP2K3_P46734_227_TMDAGCKPYMAPER (UniProt P46734),-0.192,-0.284
LYPLA1_O75608_211_TYEGMMHSSCQQEMMDVK (UniProt O75608),0.11,-0.348
MAT2A_P31153_56_VACETVAK (UniProt P31153),0.00164,0.047
LYST_Q99698_2965_CYLTIPNK (UniProt Q99698),-0.0683,-0.163
LYAR_Q9NX58_9_VFFTCNACGESVK (UniProt Q9NX58),-0.03,-0.0877
MAP2K1_Q02750_277_ELELMFGCQVEGDAAETPPRPR (UniProt Q02750),-0.0372,-0.191
LYST_Q99698_3677_SPVTAVSASETSGDIATVCDSAGGGSDLR (UniProt Q99698),0.304,-0.00375
MAP10_Q9P2G4_648_IQSPCVFQQDAVVDR (UniProt Q9P2G4),-0.157,-0.174

# A stretch from the list above, as a working copy:
Target,probe-labelled cysteine peptide fold change (10 µM),probe-labelled cysteine peptide fold change (50 µM)
LYPLA1_O75608_211_TYEGMMHSSCQQEMMDVK (UniProt O75608),0.11,-0.348
MAT2A_P31153_56_VACETVAK (UniProt P31153),0.00164,0.047

# Carrying on:

Target,probe-labelled cysteine peptide fold change (10 µM),probe-labelled cysteine peptide fold change (50 µM)
MACF1_Q9UPN3_5049_HQLEIFDALGSQACSNK (UniProt Q9UPN3),0.154,0.134
LY75_O60449_1060_YHCALILNLQK (UniProt O60449),0.183,0.185
MAP3K1_Q13233_488_NREPLICPLCR (UniProt Q13233),0.185,0.316
MBNL1_Q9NR56_185_TDRLEVCR (UniProt Q9NR56),-0.206,-0.177
MAT2B_Q9NZL9_93_FEQVNLLDSNAVHHIIHDFQPHVIVHCAAER (UniProt Q9NZL9),-0.0278,-0.105
MACF1_Q9UPN3_3527_GSNSEIDVDSLNLCLQQYEDLK (UniProt Q9UPN3),-0.035,0.0862
LUC7L_Q9NQ29_97_ERDLFFELDAMDHLESFIAECDR (UniProt Q9NQ29),-0.137,-0.000223
MBD2_Q9UBB5_111_GRPPSGGSGLGGDGGGCGGGGSGGGGAPR (UniProt Q9UBB5),-0.0117,-0.261
MAP3K4_Q9Y6R4-2_1157_CHSDPPNPHLIIPTPEGFR (UniProt Q9Y6R4),-0.126,-0.176
MAP1S_Q66K74_743_SASPHDVDLCLVSPCEFEHR (UniProt Q66K74),-0.0363,-0.283
MAD2L1_Q13257_106_WQFDIECDK (UniProt Q13257),0.158,0.188
LYN_P07948_381_AANVLVSESLMCK (UniProt P07948),0.0416,0.0995
MACF1_Q9UPN3_2629_EGLLTNEAVLSPGMMHGIVDPENCR (UniProt Q9UPN3),0.077,-0.0196
LYAR_Q9NX58_30_NCECLSCIDCGK (UniProt Q9NX58),-0.0598,-0.0603
LY75_O60449_782_GWHFYDDREFIYLRPFACDTK (UniProt O60449),0.0664,0.271
LYST_Q99698_3701_LWTVNGDLVGHVHCR (UniProt Q99698),0.0831,0.162
MAPRE1_Q15691_228_NIELICQENEGENDPVLQR (UniProt Q15691),0.21,0.0703
LTN1_O94822_1131_ESFFPLTEGNLHTIQSLCPFLSK (UniProt O94822),-0.0229,-0.0456
MAGI3_Q5TCQ9_1279_AGSGQDQCR (UniProt Q5TCQ9),-0.339,0.053
